Measurements from PubChem BioAssay AID493014 (National Center for Advancing Translational Sciences (NCATS), 2011).
Some of the results follow. The main result of the screen is listed elsewhere. These columns were measured beside it and carry no call. The list favours compounds with an active or inconclusive main result. Potencies come from curve fits of mixed quality, noted in brackets.

Experiment: qHTS Assay to Find Inhibitors of Chronic Active B-Cell Receptor Signaling
Details: ABC-DLBCL IkBa-CBG/CBR reporter, luminescence ratio (green luciferase fused to IkBa over red control in TMD8 lymphoma cells), 4 h
Procedure, shortened: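 Compounds up to 46 uM were incubated four hours with TMD8 cells whose green CBG68 luciferase is fused to IkappaBalpha; red CBR luminescence normalised the signal, and concentration-effect curves were fitted to fusion, red and ratio data.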

[1] = measured here: CBR red luminescence, cell number
[2] = measured here: IkBa-CBG green luminescence

Compound	AC50 [1]	AC50 [2]
COc1ccc(N(C)S(=O)(=O)c2cccc(C(=O)NC3CCC(C)CC3)c2)cc1 (stereo not given)	1.26 µM [rising, partial curve]	–
O=C(Nc1ccc(Br)cc1)c1cc(S(=O)(=O)N2CCc3ccccc32)ccc1F	2.51 µM [falling, full curve]	–
C[C@H](CO)N1C[C@H](C)[C@@H](CN(C)C(=O)Nc2ccc(C(F)(F)F)cc2)Oc2ccc(NC(=O)C3CC3)cc2C1=O	29.1 µM [rising, single point]	–
COc1ccc(-n2c3c(cc(C(=O)NCC(=O)c4ccccc4)c2=O)C(=O)CC(C)(C)C3)cc1	1.26 µM [rising, full curve, poor fit]	–
COc1ccc(-c2nc(-c3ccccc3)no2)c(OC)c1	2.06 µM [falling, full curve]	–
FC(F)(F)c1cccc(-c2nc(-c3ccncc3)no2)c1	8.91 µM [rising, partial curve, poor fit]	–
CCn1c2ccccc2c2cc(CNCc3ccc(OC)cc3OC)ccc21	22.4 µM [falling, single point]	–
COc1cc(OC)cc(C(=O)NC(=S)Nc2cccnc2)c1	2.82 µM [falling, full curve]	–
CCn1c(C(C)NC(=O)c2ccc(Cl)cc2)n[nH]c1=S (stereo not given)	7.94 µM [rising, partial curve, poor fit]	–
COc1ccc2nc(NCCCNC(=O)c3cc(OC)c(OC)c(OC)c3)c(C#N)cc2c1	15.8 µM [rising, partial curve, poor fit]	–
O=C(N/N=C/C(Br)=C/c1ccccc1)c1cnccn1	31.6 µM [falling, single point]	–
CCCCOC(=O)c1ccc(NC(=S)NC(=O)c2c(Cl)cnn2C)cc1	6.31 µM [falling, partial curve, poor fit]	–
Cc1ccc(Cn2ncc3c(N4CCN(c5ccccc5C)CC4)ncnc32)cc1	6.51 µM [falling, single point]	6.51 µM [rising, partial curve, poor fit]
CC(Nc1[nH]c(=O)n(C)c(=O)c1N=O)c1ccccc1 (stereo not given)	3.98 µM [falling, partial curve, poor fit]	–
COc1cccc(C(=O)NNC(=S)NC2CCCCC2)c1	0.651 µM [falling, partial curve, poor fit]	–
CC(=O)Nc1nnc(/C=C/c2cccc([N+](=O)[O-])c2)s1	0.0891 µM [rising, full curve, poor fit]	–
COc1ccc(C(=O)N(CN2CCCC2=O)c2ccc(C)cc2)cc1	14.1 µM [falling, single point]	–
NCc1cc2c3c(c1)CCCN3CCC2	2.24 µM [rising, partial curve, poor fit]	–
O=C(COc1cccnc1[N+](=O)[O-])Nc1ccc2c(c1)CCC2	2.82 µM [rising, full curve]	–
C=CCC[C@@H](Cc1ccc(F)cc1)C(=O)OC[C@@H](NC(=O)[C@@H](CC=C)CC(=O)N(CCO)Cc1ccccc1)c1ccccc1	20.6 µM [falling, single point]	–
CC1CCCC(NC(=O)COC(=O)c2ccccc2[N+](=O)[O-])C1C (stereo not given)	25.1 µM [falling, single point]	–

Compound	AC50 [1]	AC50 [2]
CCCCS/C(=C(/C#N)C(N)=O)c1cc2c([nH]1)CCCC2	12.6 µM [falling, partial curve, poor fit]	–
COc1ccc(NC(=O)NC2CCCCC2C)cc1 (stereo not given)	12.6 µM [falling, partial curve, poor fit]	–
COc1ccc(-c2ccc3oc(-c4ccsc4)cc(=O)c3c2)cn1	1.3 µM [rising, partial curve]	–
CCCN1CCc2c(sc(NC(=S)NC(=O)c3ccccc3)c2C#N)C1	3.16 µM [falling, partial curve]	–
CCC(=O)Nc1ccc(NC(=O)c2ccccn2)cn1	8.2 µM [falling, partial curve]	–
O=S(=O)(NCC(c1ccco1)N1CCN(c2ccc(F)cc2)CC1)c1cc(F)ccc1F (stereo not given)	0.355 µM [falling, full curve]	–
COc1ccc(CN(CCC(c2ccccc2)c2ccco2)C(=O)c2ccco2)cc1 (stereo not given)	16.4 µM [falling, single point]	–
CN(C)S(=O)(=O)c1cccc(C(=O)OCC(=O)Nc2sccc2C(N)=O)c1	7.94 µM [falling, partial curve]	–
CCOc1c(N2CCCCC2)c(=O)c1=O	0.794 µM [rising, full curve, poor fit]	–
COc1ccc(-c2cc(C(=O)Nc3c(C)nn(Cc4ccccc4)c3C)no2)cc1	16.4 µM [rising, partial curve]	–
COc1cccc(NC(=O)CN(C)C(=O)Cc2ccc3c(c2)CCC3)c1	25.9 µM [rising, single point]	–
CCS(=O)(=O)NCCc1cc2cc(C)c(C)cc2[nH]c1=O	5.62 µM [rising, single point]	–
CCCC1=C(C(=O)OCC)C(c2ccc(F)cc2)n2ncnc2N1 (stereo not given)	11.2 µM [falling, single point]	–
O=C(Nc1nc2ccccc2[nH]1)C1CCCC1	3.98 µM [falling, full curve, poor fit]	–
NNC(=O)CCc1nc2ccc(O)cc2[nH]1	10 µM [rising, partial curve, poor fit]	–
CC1(C(=O)OCC(=O)Nc2ccc3ccccc3c2)CC1(Cl)Cl (stereo not given)	2.24 µM [rising, partial curve, poor fit]	–
O=C(c1cccc(N2C(=O)C3CC=CCC3C2=O)c1)N1CCN(c2ccccc2)CC1 (stereo not given)	11.2 µM [falling, partial curve, poor fit]	–
C=C1CCC[C@]2(C)C[C@H]3OC(=O)C(CNC(CC)CO)[C@H]3CC12 (stereo not given in full)	11.2 µM [falling, partial curve, poor fit]	–
CCOc1ccc(/C=C2\SC(=S)N(CCCC(=O)NCCCN3CCOCC3)C2=O)cc1	3.16 µM [falling, full curve, poor fit]	–
Cc1ccc(NC(=O)N2CCCC2C(=O)Nc2ccc(-n3cnnn3)c(C)c2)cc1 (stereo not given)	25.9 µM [rising, single point]	–
CC(C(=O)Nc1cccc(Br)c1)c1ccc([N+](=O)[O-])cc1 (stereo not given)	–	23.1 µM [rising, partial curve, poor fit]

Compound	AC50 [1]	AC50 [2]
COc1ccc(-c2nn(C)c(=O)c3ccccc23)cc1CNC(=O)C1CCCCC1	7.08 µM [falling, partial curve, poor fit]	–
O=C(O)COc1c(Cl)cc(/C=C2\NC(=O)NC2=O)cc1Br	35.5 µM [rising, single point]	–
N/C(=N\OC(=O)CC1CCCCC1)c1ccc(Cl)cc1	11.2 µM [rising, partial curve]	–
CCNC(=O)c1ccccc1-c1nc(-c2ccccc2)no1	35.5 µM [rising, partial curve, poor fit]	–
COc1ccc(-n2c(C)cc(C(=O)COC(=O)c3ccc(O)cc3O)c2C)cc1	25.9 µM [falling, partial curve]	–
Cc1cccc(NS(=O)(=O)c2ccc(C)c(C(=O)OCC(=O)Nc3cc(C)on3)c2)c1	12.6 µM [falling, partial curve]	–
CCOc1cc(C(c2c(C)[nH][nH]c2=O)c2c(C)[nH][nH]c2=O)ccc1OS(=O)(=O)c1ccccc1	29.1 µM [falling, single point]	–
NC(=O)CC(NC(=O)Cc1cccc2ccccc12)c1ccc(NCCc2ccccc2F)c([N+](=O)[O-])c1 (stereo not given)	5.62 µM [rising, single point]	–
C=CCOc1c(CNc2nccs2)cccc1OCC	32.6 µM [rising, partial curve, poor fit]	–
Cc1cc(-n2c(C)cc(C(=O)CSc3nnnn3-c3ccc(Cl)cc3)c2C)no1	10.3 µM [rising, partial curve, poor fit]	–
COc1ccc(C(=O)CSC#N)cc1OC	–	22.4 µM [falling, single point]
O=[N+]([O-])c1cccc(N=Cc2sc3ccccc3c2O)c1	3.16 µM [falling, full curve]	–
Cc1nn(CC(O)CN2c3ccccc3Sc3ccccc32)c(C)c1Br (stereo not given)	29.1 µM [falling, single point]	–
Cc1ccc(N(CC(=O)Nc2ccc(F)c(Cl)c2)S(=O)(=O)c2c(C)noc2C)cc1	8.91 µM [falling, partial curve]	–
Cn1c(SCc2cccc([N+](=O)[O-])c2)nc2c(c1=O)SCC2	12.6 µM [falling, partial curve]	–
CCCNC(=O)c1nnsc1S(=O)(=O)c1ccc(Cl)cc1	2.82 µM [falling, full curve]	–
COc1ccc(CCNC(=O)COC(=O)CNS(=O)(=O)c2ccc(SC)c([N+](=O)[O-])c2)cc1	29.1 µM [falling, single point]	–
Cc1ccccc1-n1c(-c2csc3ccccc23)n[nH]c1=S	20.6 µM [falling, partial curve]	–
COc1cc2nc(=S)n3[nH]c(COc4ccccc4C)nc3c2cc1OC	23.1 µM [rising, partial curve]	20.6 µM [falling, partial curve, poor fit]
O=C(Nc1nnc(CCN2CCCCC2)s1)C1CCCCC1	4.61 µM [falling, single point]	–
Cc1cc[n+](-c2[nH]c(=O)sc2/C=N/N=C(\[O-])c2ccccc2)cc1C	22.4 µM [falling, single point]	–

A few values from the entries so far.
AC50 [1], Cc1cc[n+](-c2[nH]c(=O)sc2/C=N/N=C(\[O-])c2ccccc2)cc1C reads 22.4 µM [falling, single point]
AC50 [1], CCCNC(=O)c1nnsc1S(=O)(=O)c1ccc(Cl)cc1 reads 2.82 µM [falling, full curve]
